Assay results as given in paper PMC7862700.
This is a selection; strong and weak results do not stand in their true shares. For some assays here: At the low end of the ranking, values are background and their order means little. This is one part of the list. For some assays here: The source does not settle which construct or isoform was used.

molecular target: T1, ETS1 (UniProt P14921); assay: DAPPL (digital affinity profiling via proximity ligation, sequencing); details: 10 mM Tris-HCl pH 7.5, 50 mM NaCl, 1 mM DTT, 4% glycerol, room temperature, 30 min; GST-TFs on glutathione beads, 16-mer random dsDNA library, 0.1% …; high values mean tight binding; double strand, one strand shown; scale: fold enrichment (6-mer frequency, TF over GST control)
T1 sequence: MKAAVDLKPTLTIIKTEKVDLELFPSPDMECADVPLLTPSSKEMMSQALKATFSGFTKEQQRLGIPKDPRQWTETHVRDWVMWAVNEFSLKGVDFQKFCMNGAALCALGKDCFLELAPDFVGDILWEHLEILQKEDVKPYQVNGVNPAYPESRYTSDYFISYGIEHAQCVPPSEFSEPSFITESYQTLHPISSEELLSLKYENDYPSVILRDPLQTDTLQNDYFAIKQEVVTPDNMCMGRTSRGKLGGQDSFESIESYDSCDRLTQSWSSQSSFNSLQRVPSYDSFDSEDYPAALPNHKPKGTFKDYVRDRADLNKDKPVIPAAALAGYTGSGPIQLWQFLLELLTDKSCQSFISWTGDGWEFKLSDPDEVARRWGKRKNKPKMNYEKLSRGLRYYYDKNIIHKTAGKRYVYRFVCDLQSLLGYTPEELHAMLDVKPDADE

Sequence | binding signal
TGATCG | 0.985
TGTTCC | 1.76
CGTCCT | 1.5
TTGAGC | 1.01
AATGTT | 1.67
TCCGCG | 1.3
TCAGAT | 1.06
TAATAC | 1.19
TTTAGT | 1.06
CTCTCG | 1.39
TCACCT | 1.24
GCCTAG | 0.941
GACTTA | 0.927
GTTACT | 1.35
CCTTCG | 1.5
GCTGGC | 0.922
TCTAGG | 1.05
CACTGT | 1.17
ATCTGC | 1.31
GCGTAT | 0.981

Sequence | binding signal
CCTTGC | 1.43
TGATTA | 1.07
TGATAG | 0.93
TGTTCG | 1.04
TGTTGC | 1.25
CGGGCT | 0.876
ATAGAT | 1.26
GTTAAA | 1.07
GCACAT | 1.14
ATAACG | 0.935
TCGAGT | 0.94
TCCGAA | 1.34
TAGCTT | 1.29
GCAATC | 1
CCCTAT | 1.32
TCCATG | 1.16
AAGTGT | 1.18
ACTACG | 1.19
ATCAAC | 1.13
GGGGCT | 1.04

molecular target: T2, SPDEF (UniProt O95238); assay: as above; details: 10 mM Tris-HCl pH 7.5, 50 mM NaCl, 1 mM DTT, 4% glycerol, room temperature, 30 min; GST-TFs on glutathione beads, 16-mer random dsDNA library, 0.1% …; high values mean tight binding; double strand, one strand shown; scale: fold enrichment (6-mer frequency, TF over GST control)
T2 sequence: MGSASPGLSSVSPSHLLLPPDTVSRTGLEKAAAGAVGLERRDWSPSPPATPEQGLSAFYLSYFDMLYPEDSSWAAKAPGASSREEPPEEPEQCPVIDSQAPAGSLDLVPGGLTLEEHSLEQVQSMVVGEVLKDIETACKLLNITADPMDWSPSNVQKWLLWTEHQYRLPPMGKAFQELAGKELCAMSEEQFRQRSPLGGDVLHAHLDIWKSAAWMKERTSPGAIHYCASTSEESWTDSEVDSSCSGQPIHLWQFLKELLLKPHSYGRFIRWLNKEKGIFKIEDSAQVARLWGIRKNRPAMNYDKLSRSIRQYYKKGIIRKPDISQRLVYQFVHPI

Sequence | binding signal
TGATCG | 0.914
TGTTCC | 2.03
CGTCCT | 1.56
TTGAGC | 1.02
AATGTT | 1.44
TCCGCG | 1.4
TCAGAT | 1.07
TAATAC | 1.12
TTTAGT | 1.04
CTCTCG | 1.16
TCACCT | 1.22
GCCTAG | 0.975
GACTTA | 0.902
GTTACT | 1.18
CCTTCG | 1.33
GCTGGC | 0.893
TCTAGG | 0.947
CACTGT | 1.11
ATCTGC | 1.36
GCGTAT | 0.998

Sequence | binding signal
CCTTGC | 1.34
TGATTA | 1.01
TGATAG | 0.936
TGTTCG | 1.03
TGTTGC | 1.33
CGGGCT | 1.07
ATAGAT | 1.27
GTTAAA | 0.928
GCACAT | 1.28
ATAACG | 0.967
TCGAGT | 0.882
TCCGAA | 1.29
TAGCTT | 1.08
GCAATC | 0.976
CCCTAT | 1.31
TCCATG | 1.1
AAGTGT | 1.32
ACTACG | 1.27
ATCAAC | 1.06
GGGGCT | 0.989
